Paper PMC3204985
Positions count from the first letter of the chain named. No constants are given. Whether binding was seen depends on the method and setting. A result given as binding can be weak or reduced; the word gives no strength. Sequences can lack the tags named with a protein.

Sequences of proteins named here, by UniProt entry; tags and fusion partners are left off. A change or cut given only in a name is not applied to a line headed by its entry.
UniProt P38798: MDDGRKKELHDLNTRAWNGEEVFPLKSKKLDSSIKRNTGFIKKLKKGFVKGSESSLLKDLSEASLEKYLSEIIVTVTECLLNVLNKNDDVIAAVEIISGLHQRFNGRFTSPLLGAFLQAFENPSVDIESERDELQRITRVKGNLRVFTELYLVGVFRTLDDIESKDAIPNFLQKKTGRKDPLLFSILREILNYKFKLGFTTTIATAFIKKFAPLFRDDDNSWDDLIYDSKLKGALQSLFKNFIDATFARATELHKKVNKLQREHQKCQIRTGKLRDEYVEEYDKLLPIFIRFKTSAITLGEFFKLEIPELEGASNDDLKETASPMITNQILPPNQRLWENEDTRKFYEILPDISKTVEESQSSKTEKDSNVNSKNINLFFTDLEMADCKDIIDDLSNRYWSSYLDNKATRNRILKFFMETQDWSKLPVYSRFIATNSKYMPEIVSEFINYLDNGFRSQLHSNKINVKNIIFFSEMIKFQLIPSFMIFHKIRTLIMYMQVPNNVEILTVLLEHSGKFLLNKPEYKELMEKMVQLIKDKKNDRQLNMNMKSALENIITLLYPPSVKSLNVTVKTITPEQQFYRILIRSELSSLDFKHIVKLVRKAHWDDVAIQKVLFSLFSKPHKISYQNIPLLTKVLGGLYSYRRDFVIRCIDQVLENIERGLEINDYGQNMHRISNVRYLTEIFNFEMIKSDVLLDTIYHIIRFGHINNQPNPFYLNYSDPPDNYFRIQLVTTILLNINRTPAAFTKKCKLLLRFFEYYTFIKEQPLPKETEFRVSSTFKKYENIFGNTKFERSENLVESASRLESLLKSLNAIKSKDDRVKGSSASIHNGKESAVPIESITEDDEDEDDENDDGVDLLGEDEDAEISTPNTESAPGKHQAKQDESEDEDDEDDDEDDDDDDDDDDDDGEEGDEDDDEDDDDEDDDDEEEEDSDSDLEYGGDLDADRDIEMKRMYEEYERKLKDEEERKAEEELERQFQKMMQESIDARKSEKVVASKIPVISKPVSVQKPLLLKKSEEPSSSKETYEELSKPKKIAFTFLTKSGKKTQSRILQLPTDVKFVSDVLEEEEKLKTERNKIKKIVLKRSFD

Key:
[1] = target: T1, BD-Upf1 N-terminus (1–230) (S. cerevisiae) (UniProt P30771); experiment: two-hybrid; yeast two-hybrid, β-galactosidase plate assay; one haploid strain transformed with both the AD and BD plasmids; deletion strains yRP2834 (edc3Δ), yRP2835 (upf2Δ), yRP2836 (pat1Δ)
T1 sequence: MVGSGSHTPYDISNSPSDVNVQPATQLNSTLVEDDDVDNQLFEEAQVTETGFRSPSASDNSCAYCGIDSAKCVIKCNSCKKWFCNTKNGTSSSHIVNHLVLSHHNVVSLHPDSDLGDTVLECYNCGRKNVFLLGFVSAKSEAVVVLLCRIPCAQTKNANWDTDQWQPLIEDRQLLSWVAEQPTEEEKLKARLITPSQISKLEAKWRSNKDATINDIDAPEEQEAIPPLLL

[2] = target: T2, BD-Upf1 Mutant 24: W177A (S. cerevisiae) (UniProt P30771); experiment: two-hybrid; yeast two-hybrid, β-galactosidase plate assay; AD and BD fusions; for the point mutants: mating of MATa (yRP2094) and MATα (yRP2093) strains and selection of diploids on drop-out media
T2 sequence: T1 sequence with W177A

[3] = target: T3, BD-Upf1 Mutant 3: Q166A E170A L175A W177A (S. cerevisiae) (UniProt P30771); experiment: as above
T3 sequence: T1 sequence with Q166A, E170A, L175A, W177A

[4] = target: T1, BD-Upf1 N-terminus (1–230) (S. cerevisiae); experiment: as above
[5] = target: T4, BD-Upf1 Mutant 23: L115A Y123A (S. cerevisiae) (UniProt P30771); experiment: as above
T4 sequence: T1 sequence with L115A, Y123A

[6] = target: T5, BD-Upf1 Mutant 18: P111A D112A D114A D117A (S. cerevisiae) (UniProt P30771); experiment: as above
T5 sequence: T1 sequence with P111A, D112A, D114A, D117A

binding [1]: binds
binding [2]: binds
binding [3]: binds
binding [4]: binds
binding [5]: binds
binding [6]: binds
Substance: AD-Upf2 C-terminus (Ct 157 AA) (from UniProt P38798) (domain or fragment)
